According to patent US5668264:

System: PDGF AB (Homo sapiens)
Test: filter binding
Conditions: 3'-3' inverted T at 3' end, substantially lower affinity than full-length, data not shown, purified recombinant protein, protein details: R&D Systems 222-AB, single-stranded DNA

AAGTCGTGCAGGGTCCCCTGGAAGCATCTCCGATCCCAGACTTT [38t]
binding result (variant of ssDNA ligand 38): binds more weakly

AGTGGAACAGGGCACGGAGAGTCAAACTTTGGTTTCCCCCACTT [40t]
binding result (variant of ssDNA ligand 40): binds more weakly

GGGCGCGTTCTTCGTGGTTACTTTTAGTCCCGT [20t-b]
binding result (variant of ssDNA ligand 20): binds more weakly

TACTAGGCTTGACAAAGGGCACCATGGCTTAGTGGTCCTAGTAT [14t]
binding result (variant of ssDNA ligand 14): binds more weakly

TAGAGGGGAAGTAGGCTGCCTGACTCGAGAGAGTT [26t]
binding result (variant of ssDNA ligand 26): binds more weakly

The comparison behind a weaker result is the experiment's own reference, which may not be listed here.
